The list shows a part of the results. These are further read-outs of the screen, such as a control signal, another cell line or another target. No call is given for them. The list favours compounds with an active or inconclusive main result. Words in brackets tell the shape of the fitted curve; partial curves, single points and poor fits give uncertain potencies.
Experiment: qHTS Assay for Modulators of Lamin A Splicing
Settings: HeLa LMNA splicing GFP/RFP minigene ratio, 48 h
Outline: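 Read-out is the ratio of GFP to DsRed2 object intensity, acquired by 488 nm laser-scanning cytometry on HeLa lamin A-EGFP minigene reporter cells. Compound incubation 48 hrs at 37 °C in Opti-MEM with 2% FBS; DMSO 0.5% final.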

[1] = measured here: RFP viability control channel
[2] = measured here: GFP splicing reporter channel

Row | SMILES | AC50 [1] | AC50 [2]
1 | COc1ccccc1OCCC(=O)O | 0.0282 µM [falling, full curve, poor fit] | –
2 | CCCC(C)C(=O)Nc1ccc(S(=O)(=O)Nc2nccc(C)n2)cc1 (stereo unspecified) | 2.24 µM [rising, partial curve, poor fit] | 0.178 µM [rising, full curve, poor fit]
3 | N#CCc1ccc(NS(=O)(=O)c2ccc(N3CCCC3=O)cc2)cc1 | 31.6 µM [rising, single point] | 20 µM [rising, single point]
4 | COCCNC(=O)C1(C)C=CC2(CCCCC2)N1C(=O)c1ccccc1 (stereo unspecified) | 0.1 µM [rising, full curve] | –
5 | Cc1csc(SC(C)C(=O)NCc2ccc3c(c2)OCO3)n1 (stereo unspecified) | 1.26 µM [falling, partial curve, poor fit] | –
6 | CCOC(=O)c1c(S(=O)(=O)N2CCC(C(=O)Nc3ccc(C)c(Cl)c3)CC2)c(C)n(C)c1C | 0.01 µM [falling, full curve, poor fit] | –
7 | Clc1ccc(CSc2nnc(-c3cccnc3)n2Cc2ccco2)c(Cl)c1 | 14.1 µM [rising, single point] | 22.4 µM [rising, single point]
8 | Cc1ccc2[nH]c(=O)c(CN(CCCN3CCOCC3)C(=O)Nc3ccc(Cl)cc3)cc2c1 | – | 0.00355 µM [rising, full curve, poor fit]
9 | O=C(Nc1ccc(S(=O)(=O)N2CCCCC2)cc1)C1CCCN(C(=O)c2ccc(Cl)cc2)C1 (stereo unspecified) | 5.62 µM [rising, full curve] | 2.24 µM [rising, single point]
10 | O=C(c1ccc([N+](=O)[O-])s1)N1CCN(c2cccc(Cl)c2)CC1 | 20 µM [rising, single point] | 11.2 µM [rising, single point]
11 | O=S(=O)(c1ccc(-c2cnc(C3CC3)o2)cc1)N1CCN(c2ccc(F)cc2)CC1 | 0.316 µM [rising, full curve] | –
12 | COC(=O)c1c(NC(=O)c2ccccc2N(C)S(=O)(=O)c2ccccc2)sc2c1CCCC2 | 3.16 µM [rising, single point] | –
13 | COc1ccc(OC)c(NC(=O)CSC2=Nc3ccccc3C3=NC(CC(=O)NCCc4ccccc4)C(=O)N23)c1 (stereo unspecified) | – | 10 µM [rising, partial curve]
14 | C=CCOc1ccc(NC(=O)C(=O)NCCCn2ccnc2)cc1 | 28.2 µM [falling, single point] | –
15 | O=C(N/N=C1\CC(c2ccccc2)Oc2ccccc21)c1cccnc1 (stereo unspecified) | 0.398 µM [falling, full curve, poor fit] | –
16 | Cc1ccc(NC(=O)C(=O)NCCN2CCN(S(C)(=O)=O)CC2)cc1C | – | 0.282 µM [rising, full curve, poor fit]
17 | Cc1cc2nc(N3C(=O)CNC3=S)sc2cc1C | 35.5 µM [rising, single point] | –
18 | Oc1c(C(c2ccccc2)N2CCCC2)sc2nc(-c3ccco3)nn12 (stereo unspecified) | – | 2.82 µM [rising, full curve, poor fit]
19 | CCOC(=O)/C(C#N)=N/Nc1c(S(=O)(=O)Cc2ccco2)csc1C(=O)OC | 1.78 µM [falling, partial curve] | –
20 | CCOC(=O)c1c(C)[nH]c(CCC(=O)NCc2cc(OC)c(OC)c(OC)c2)c1C | 7.08 µM [rising, partial curve] | 0.398 µM [rising, full curve]
21 | OCCC1CN(Cc2cccc(-c3ccco3)c2)CCN1Cc1ccsc1 (stereo unspecified) | 7.94 µM [falling, full curve, poor fit] | –
22 | O=[N+]([O-])c1ccc(NNC(=S)Nc2ccc(F)cc2)cc1 | 17.8 µM [rising, single point] | –
23 | CC(=O)Nc1sc2c(c1C(c1ccccc1)N1CCOCC1)CCCC2 (stereo unspecified) | 15.8 µM [rising, single point] | –
24 | COc1cc(OC)cc(C(=O)N/N=C/c2ccc(OC)c(COc3ccc(F)cc3)c2)c1 | 6.31 µM [falling, full curve] | 5.01 µM [falling, full curve]
25 | COc1cccc(C2CC(c3ccccc3)=NN2S(=O)(=O)c2ccc(C)cc2)c1OC (stereo unspecified) | 6.31 µM [rising, partial curve, poor fit] | 5.62 µM [rising, partial curve, poor fit]
26 | N=c1n(Cc2ccccc2)c2ccccc2n1Cc1ccccc1 | 31.6 µM [rising, single point] | 15.8 µM [rising, single point]
27 | CCN1CCN(C(c2ccccc2Cl)c2sc3nc(-c4ccco4)nn3c2O)CC1 (stereo unspecified) | – | 0.0224 µM [falling, full curve, poor fit]
28 | Cc1cccc(CNc2ncncc2-c2ccc3c(c2)OCO3)c1 | 35.5 µM [rising, single point] | –

Given as a markdown table: four of the compounds above

| Row | SMILES | AC50 [1] | AC50 [2] |
| --- | --- | --- | --- |
| 2 | CCCC(C)C(=O)Nc1ccc(S(=O)(=O)Nc2nccc(C)n2)cc1 (stereo unspecified) | 2.24 µM [rising, partial curve, poor fit] | 0.178 µM [rising, full curve, poor fit] |
| 11 | O=S(=O)(c1ccc(-c2cnc(C3CC3)o2)cc1)N1CCN(c2ccc(F)cc2)CC1 | 0.316 µM [rising, full curve] | – |
| 14 | C=CCOc1ccc(NC(=O)C(=O)NCCCn2ccnc2)cc1 | 28.2 µM [falling, single point] | – |
| 24 | COc1cc(OC)cc(C(=O)N/N=C/c2ccc(OC)c(COc3ccc(F)cc3)c2)c1 | 6.31 µM [falling, full curve] | 5.01 µM [falling, full curve] |

The listing continues:

Row | SMILES | AC50 [1] | AC50 [2]
29 | O=C(Nc1nnc(-c2ccccc2Cl)o1)c1nc2ccccc2s1 | 31.6 µM [rising, single point] | –
30 | CCCc1cc(=O)n2[nH]c(NCc3ccccc3Cl)nc2n1 | 35.5 µM [falling, single point] | –
31 | CC(C)Oc1ccc(C(=O)NCC(c2ccc(N(C)C)cc2)N2CCc3ccccc32)cc1 (stereo unspecified) | – | 35.5 µM [falling, single point]
32 | O=C(NCc1cccnc1)c1ccc([N+](=O)[O-])o1 | 20 µM [falling, partial curve, poor fit] | 11.2 µM [falling, partial curve, poor fit]
33 | CCN(c1ccccc1)S(=O)(=O)c1nnc(NC(=O)C2CCCCC2)s1 | 12.6 µM [falling, partial curve, poor fit] | 14.1 µM [falling, partial curve, poor fit]
34 | CC(C)(C)c1ccc(C(=O)c2c[nH]c(C(=O)NCc3ccco3)c2)cc1 | 17.8 µM [falling, single point] | 35.5 µM [falling, single point]
35 | CNC(=S)N/N=C/c1cc(C)n(-c2ccc(Cl)c(Cl)c2)c1C | 35.5 µM [rising, partial curve] | 28.2 µM [rising, single point]
36 | Cc1ccc(C)c(N2CCN(C(=O)c3ccc(Cn4c(=O)[nH]c5ccccc5c4=O)cc3)CC2)c1 | 15.8 µM [rising, single point] | 11.2 µM [rising, partial curve, poor fit]
37 | O=C(Nc1ccc(Br)cc1)c1cc(S(=O)(=O)NC2CCCC2)ccc1F | 11.2 µM [falling, partial curve, poor fit] | 8.91 µM [falling, partial curve]
38 | O=C(Cn1nc2ccccc2n1)N/N=C/c1cc(Cl)cc([N+](=O)[O-])c1O | – | 17.8 µM [falling, single point]
39 | C=CCn1c(SCC(=O)Nc2nc3ccccc3s2)nnc1-c1ccccc1O | 35.5 µM [rising, single point] | –
40 | O=C(NNc1cccc(Cl)n1)Nc1cccc(C(F)(F)F)c1 | 14.1 µM [rising, partial curve, poor fit] | 11.2 µM [rising, single point]
41 | Cc1ccc(Cn2ncc3c(N4CCN(CC#N)CC4)ncnc32)cc1 | – | 12.6 µM [falling, single point]
42 | CCC(C)(C)n1nnnc1C(c1ccc2ncccc2c1)N1CCN(c2nc3ccccc3s2)CC1 (stereo unspecified) | 8.91 µM [rising, partial curve] | –
43 | CNC(=S)N=Nc1c(O)[nH]c2ccccc12 | 14.1 µM [rising, single point] | 14.1 µM [rising, single point]
44 | O=C(Nc1cccc(O)c1)c1ccc(C(F)(F)F)cc1 | 0.794 µM [falling, partial curve] | 1.12 µM [falling, partial curve, poor fit]
45 | O=C(O)CSc1nc(-c2ccc(Cl)cc2)nc2c1oc1ccccc12 | 31.6 µM [rising, single point] | –
46 | Cc1ccc(-c2ccc(/C=C3\SC(N4CCOCC4)=NC3=O)o2)cc1 | 0.355 µM [falling, full curve, poor fit] | 0.447 µM [falling, full curve, poor fit]
47 | CCOc1ccccc1NS(=O)(=O)c1ccc(N2CCCCS2(=O)=O)cc1 | – | 0.0794 µM [falling, full curve, poor fit]
48 | Fc1ccccc1CSc1ncnc2c1oc1ccccc12 | 22.4 µM [rising, single point] | –
49 | CC(C)CCCC(C)CCCC(C)CCCCC(C)CCCC(C)CCCC(C)C (stereo unspecified) | 31.6 µM [rising, single point] | –
50 | CC(=O)Nc1ccc(NC(=O)/C=C/c2ccc3c(c2)OCO3)cc1 | – | 35.5 µM [rising, single point]
51 | O=C(CSc1ccccc1F)NC(=O)NCc1ccco1 | 11.2 µM [rising, single point] | 20 µM [rising, single point]
52 | Cc1ccc(C)c(NC(=O)Cn2c(SCC(=O)NCc3ccccc3)nc3ccccc32)c1 | – | 0.708 µM [falling, full curve, poor fit]
53 | O=c1[nH]c(SCC2CCCCO2)nc2ccccc12 (stereo unspecified) | – | 11.2 µM [rising, single point]
54 | CCC(=O)N1CCc2cc(CNS(=O)(=O)c3ccc(CC(C)C)cc3)ccc21 | – | 0.631 µM [rising, full curve]
55 | CC(C)(C)c1cc(NC(=O)c2ccc(OC3CCCC3)cc2)no1 | 31.6 µM [rising, single point] | 31.6 µM [rising, single point]

Reference: PubChem BioAssay AID1487 (National Center for Advancing Translational Sciences (NCATS), 2009)
